Results on three molecules are retold here after doi:10.1101/806364.

The chains behind the UniProt entries cited, without tags or fusion partners.
UniProt P55884: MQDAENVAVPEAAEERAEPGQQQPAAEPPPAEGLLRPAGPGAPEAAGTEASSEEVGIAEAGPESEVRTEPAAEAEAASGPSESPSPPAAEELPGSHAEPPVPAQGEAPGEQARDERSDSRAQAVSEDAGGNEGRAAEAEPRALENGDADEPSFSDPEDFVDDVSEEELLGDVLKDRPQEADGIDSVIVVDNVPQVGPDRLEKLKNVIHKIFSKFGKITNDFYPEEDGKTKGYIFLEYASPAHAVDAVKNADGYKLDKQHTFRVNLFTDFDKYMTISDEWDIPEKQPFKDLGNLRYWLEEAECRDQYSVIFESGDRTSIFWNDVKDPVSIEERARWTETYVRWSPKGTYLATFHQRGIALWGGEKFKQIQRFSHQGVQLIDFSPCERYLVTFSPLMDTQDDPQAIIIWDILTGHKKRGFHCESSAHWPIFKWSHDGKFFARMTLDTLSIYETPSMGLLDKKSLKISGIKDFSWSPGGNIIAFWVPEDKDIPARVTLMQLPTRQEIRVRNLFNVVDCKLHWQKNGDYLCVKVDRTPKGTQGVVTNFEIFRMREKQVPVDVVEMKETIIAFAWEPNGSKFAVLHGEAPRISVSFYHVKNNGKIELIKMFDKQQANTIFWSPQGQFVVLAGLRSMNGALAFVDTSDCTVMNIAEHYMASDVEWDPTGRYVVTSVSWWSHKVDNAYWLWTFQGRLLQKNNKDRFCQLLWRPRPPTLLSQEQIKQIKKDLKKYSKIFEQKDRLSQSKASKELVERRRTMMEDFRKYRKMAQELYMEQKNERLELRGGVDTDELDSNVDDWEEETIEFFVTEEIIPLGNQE
UniProt P05198: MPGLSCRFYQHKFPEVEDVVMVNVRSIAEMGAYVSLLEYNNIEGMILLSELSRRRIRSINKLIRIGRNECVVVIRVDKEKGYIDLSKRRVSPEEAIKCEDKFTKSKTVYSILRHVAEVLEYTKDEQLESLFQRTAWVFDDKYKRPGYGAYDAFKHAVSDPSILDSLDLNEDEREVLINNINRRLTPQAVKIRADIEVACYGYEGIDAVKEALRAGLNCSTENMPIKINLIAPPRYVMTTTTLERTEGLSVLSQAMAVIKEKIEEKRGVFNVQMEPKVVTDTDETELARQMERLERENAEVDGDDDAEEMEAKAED
UniProt P06730: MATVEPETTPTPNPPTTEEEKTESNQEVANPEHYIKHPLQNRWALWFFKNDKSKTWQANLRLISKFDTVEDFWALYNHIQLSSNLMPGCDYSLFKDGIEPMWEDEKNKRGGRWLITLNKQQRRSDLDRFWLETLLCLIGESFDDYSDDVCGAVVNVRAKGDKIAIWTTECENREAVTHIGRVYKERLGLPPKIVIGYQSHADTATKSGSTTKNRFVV

No constants are given. Whether binding was seen depends on the method and setting. Some results given as binding are weak or reduced against the parent protein; the word gives no strength.

Holding throughout (test): selective 80S ribosome footprinting
Assay [1] addresses eIF3B (human (endogenous in HeLa)) (UniProt P55884).
Assay [2] deals with eIF2S1 (human (endogenous in HeLa)) (UniProt P05198).
The target in assay [3] is eIF4E (human (endogenous in HeLa)) (UniProt P06730).

For the molecule “eIF4G1 (nascent chain on translating 80S ribosomes) (from UniProt Q04637-1 1-1599)”, the binding entry in assay [1] is given as “binds”.

“eIF3A (nascent chain on translating 80S ribosomes) (from UniProt Q14152-1 1-1382)”: in assay [2], the binding result is listed as “binds”.

B1: eIF4ENIF1 (nascent chain on translating 80S ribosomes) (protein, UniProt Q9NRA8-1 1-985)
chain: MDRRSMGETESGDAFLDLKKPPASKCPHRYTKEELLDIKELPHSKQRPSCLSEKYDSDGVWDPEKWHASLYPASGRSSPVESLKKELDTDRPSLVRRIVDPRERVKEDDLDVVLSPQRRSFGGGCHVTAAVSSRRSGSPLEKDSDGLRLLGGRRIGSGRIISARTFEKDHRLSDKDLRDLRDRDRERDFKDKRFRREFGDSKRVFGERRRNDSYTEEEPEWFSAGPTSQSETIELTGFDDKILEEDHKGRKRTRRRTASVKEGIVECNGGVAEEDEVEVILAQEPAADQEVPRDAVLPEQSPGDFDFNEFFNLDKVPCLASMIEDVLGEGSVSASRFSRWFSNPSRSGSRSSSLGSTPHEELERLAGLEQAILSPGQNSGNYFAPIPLEDHAENKVDILEMLQKAKVDLKPLLSSLSANKEKLKESSHSGVVLSVEEVEAGLKGLKVDQQVKNSTPFMAEHLEETLSAVTNNRQLKKDGDMTAFNKLVSTMKASGTLPSQPKVSRNLESHLMSPAEIPGQPVPKNILQELLGQPVQRPASSNLLSGLMGSLEPTTSLLGQRAPSPPLSQVFQTRAASADYLRPRIPSPIGFTPGPQQLLGDPFQGMRKPMSPITAQMSQLELQQAALEGLALPHDLAVQAANFYQPGFGKPQVDRTRDGFRNRQQRVTKSPAPVHRGNSSSPAPAASITSMLSPSFTPTSVIRKMYESKEKSKEEPASGKAALGDSKEDTQKASEENLLSSSSVPSADRDSSPTTNSKLSALQRSSCSTPLSQANRYTKEQDYRPKATGRKTPTLASPVPTTPFLRPVHQVPLVPHVPMVRPAHQLHPGLVQRMLAQGVHPQHLPSLLQTGVLPPGMDLSHLQGISGPILGQPFYPLPAASHPLLNPRPGTPLHLAMVQQQLQRSVLHPPGSGSHAAAVSVQTTPQNVPSRSGLPHMHSQLEHRPSQRSSSPVGLAKWFGSDVLQQPLPSMPAKVISVDELEYRQ
Consider B1, for which the binding entry in assay [3] was “binds”.
